One molecule from paper PMC4158420, “Crenactin from Pyrobaculum calidifontis is closely related to actin in structure and forms steep helical filaments” (Febs Letters, 2014) can be followed below.

No constants are given. Whether binding was seen depends on the method and setting.

In the experiment the target is Pyrobaculum calidifontis crenactin V339K (Pyrobaculum calidifontis) (UniProt A3MWN5). Kind of experiment: negative stain electron microscopy; 0.3 mg/ml purified crenactin polymerised with 2 mM ATP and 4 mM MgCl2 at room temperature for 30 min; carbon grids treated with poly-L-lysine, or 600 mM to 2 M KCl without poly-L-lysine; uranyl acetate stain; both purified.

B1: Pyrobaculum calidifontis crenactin V339K (protein, UniProt A3MWN5 1-432)
chain: MGVISDAYRLKYTFGVDFGTSYVKYGPITLNEPKMVQTRGLFLRDLPESVKMRIPPDVLARGLVVGDEEVRKYLSSVRDVQRNLKYPLKDGVARRDDEEAWRVLKELARYTLAQFPVSDPEFAGWLVAVALSALAPDYMYKAIFDIYDELASEFKIYAVTILPQPLAVAIAENAVNCVIVEGGHGNIQVAPISFALIREGLVALNRGGAEANAITREILKDIGYSDIAREEYAVEVVKRAVGLVPRRLKEAIRAAKSDPDRFVTKVRLSPVVEVEIPREYAWTRFLIGEIVFDPNHEEIKSYIEQSRLRIENAVIGDVTLYGEMDVASAIITSLRNVSKEIQERVASQIILSGGAFSWRVPPGMEDVAADSVTRVKIALEEKSPALASKVEVRLVSEPQYSVWRGAVIYGYALPLSLEWSDTTREGWRFPRR
As to B1, the binding result is recorded as “no binding (tested: 0.3 mg/ml)”.
